In PubChem BioAssay AID493014 (National Center for Advancing Translational Sciences (NCATS), 2011):
This is one part of the list. Further columns of the screen follow, without active or inactive calls. Compounds called inactive in the main read-out are mostly missing here. The note in brackets gives the kind of curve behind each potency; many fits are weak.

Experiment: qHTS Assay to Find Inhibitors of Chronic Active B-Cell Receptor Signaling
Conditions: ABC-DLBCL IkBa-CBG/CBR reporter, luminescence ratio (green luciferase fused to IkBa over red control in TMD8 lymphoma cells), 4 h
Procedure, shortened: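 Concentration-response series (up to 46 uM) were applied to TMD8 dual-reporter cells for 4 h at 37C with doxycycline. Green/red ratio, after filter-overlap correction, defined %Activity; red signal alone was normalised to basal cells and zero luminescence.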

[1] = measured here: CBR red luminescence, cell number
[2] = measured here: IkBa-CBG green luminescence

SMILES	AC50 [1]	AC50 [2]
COc1ccc(OC)c(S(=O)(=O)NCC(c2ccco2)S(=O)(=O)c2ccccc2)c1 (stereo not given)	0.562 µM [falling, full curve, poor fit]	
O=C(Nc1nc(-c2ccc3ccccc3c2)cs1)c1ccc(N2C(=O)CCC2=O)cc1	0.517 µM [rising, full curve, poor fit]	
CCOC(=O)CN1C(=O)C(CC)Oc2ccc(Cl)cc21 (stereo not given)	1.58 µM [rising, partial curve, poor fit]	
CC1=C(C(=O)OCc2ccccc2)C(c2cccc([N+](=O)[O-])c2)NC(=O)N1 (stereo not given)	7.94 µM [falling, partial curve, poor fit]	
Cc1cc(NC(=O)CSc2nc3ccccc3c(=O)n2CCCC(=O)NCc2ccco2)n[nH]1	35.5 µM [falling, single point]	
CCCCn1c(=N)n(CC(=O)c2ccc(Br)s2)c2ccccc21	7.94 µM [falling, partial curve]	
Clc1ccc(-n2ncc3c(NCCCn4ccnc4)ncnc32)cc1	3.26 µM [falling, single point]	
O=C(Nc1cccc(C(F)(F)F)c1)C1CCCO1 (stereo not given)	12.6 µM [rising, single point]	
CCOC(=O)C1=C(C)NC(=S)NC1c1ccc(-c2cccc(Cl)c2C)o1 (stereo not given)	10 µM [falling, partial curve, poor fit]	
C=C(C)COc1ccc(-c2[nH]ncc2Oc2ccc(OC)cc2)c(O)c1	6.31 µM [rising, full curve, poor fit]	
O=C(CCc1ccccc1)Nc1cc(C(F)(F)F)ccc1Cl	3.55 µM [rising, partial curve, poor fit]	
O=C(Nc1nnc(Cc2ccccc2F)s1)Nc1ccccc1F	0.316 µM [rising, full curve]	
COc1ccc(NC(=O)C(=O)NCCCO)cc1Cl	1.41 µM [rising, partial curve, poor fit]	
C=CCOc1ccc(C(=O)NC2CCCCC2)cc1	7.31 µM [falling, partial curve]	
CC(C)Cn1c(SCC(=O)Nc2cccc(S(N)(=O)=O)c2)nc2ccccc2c1=O	17.8 µM [falling, partial curve, poor fit]	
CCCn1c(=S)[nH]c2ccc(C(F)(F)F)cc21	22.4 µM [falling, single point]	
Cc1nc2ccc(NC(=O)Cc3c(F)cccc3Cl)cc2s1	15.8 µM [falling, single point]	
Cc1ccc(NS(=O)(=O)c2ccc(Cl)c(NC(=S)NC(=O)C3CCCCC3)c2)cc1Cl	23.1 µM [falling, single point]	
O=C(CCCN1C(=O)/C(=C/c2ccccc2OC(F)F)SC1=S)Nc1cccnc1	14.6 µM [falling, partial curve]	5.17 µM [falling, partial curve, poor fit]
COc1ccccc1-c1nnc(NC(=O)CCS(=O)(=O)c2ccccc2)o1	11.2 µM [falling, single point]	
O=C1CN(C(=O)CSc2nc3ccccc3c(=O)n2Cc2ccc(F)cc2)c2ccccc2N1	25.9 µM [falling, partial curve]	
O=C(Nc1cnn(Cc2ccc(F)cc2)c1)c1cc(-c2cccs2)on1	32.6 µM [rising, single point]	

SMILES	AC50 [1]	AC50 [2]
C/C(=N/NC(=O)c1cc(C(C)C)[nH]n1)c1cccs1	12.6 µM [falling, partial curve]	
CCCCCNc1nc2ccccc2nc1NS(=O)(=O)c1cccs1	1.03 µM [rising, full curve, poor fit]	
O=C(NCCc1ccc(Cl)cc1)c1ccc2c(c1)OCO2	20 µM [falling, partial curve, poor fit]	
CC(=O)[C@@]1(O)CC[C@H]2[C@@H]3CCC4=CC(=O)CC[C@]4(C)[C@H]3[C@@H](O)C[C@@]21C	0.282 µM [rising, full curve, poor fit]	
O=C(CCl)Nc1cn(-c2ccccc2)nc1-c1ccc(F)cc1	11.2 µM [falling, partial curve]	
CN(CC(=O)Nc1nc2ccccc2s1)S(=O)(=O)c1ccc(Cl)cc1	3.66 µM [rising, partial curve, poor fit]	
O=C(Cc1ccc(F)cc1)Nc1cccc2cccnc12	2.06 µM [rising, partial curve, poor fit]	
COC(=O)c1cccc(NC(=O)Nc2ccc(Cl)c(Cl)c2)c1	35.5 µM [falling, single point]	
COCCNS(=O)(=O)c1cccn1-c1ncc(C(F)(F)F)cc1Cl	0.651 µM [rising, partial curve, poor fit]	
COCC(=O)Nc1ccc2nc3n(c(=O)c2c1)CCCCC3	31.6 µM [rising, single point]	
CCCC(=O)Nn1cnc2c(c1=O)C1(CCCCC1)Cc1ccccc1-2	23.1 µM [falling, single point]	
O=C(NCCc1csc(-c2cccnc2)n1)c1ccc(Br)o1	13 µM [falling, partial curve, poor fit]	
CCCCCCNC(=O)N[C@H](C(=O)NCCC[C@H]1CN2C(=NC[C@H]2C)N1CCC(c1ccccc1)c1ccccc1)C(C)O (stereo not given in full)		15.8 µM [falling, single point]
COCCCNCCCCOc1ccccc1-c1ccccc1	13 µM [falling, partial curve]	
CC(C)(C)NC(=S)Nc1ccc(Br)cc1	4.47 µM [rising, full curve, poor fit]	
CCC1=NN2C(=N)/C(=C\c3cccn3-c3ccc(C)cc3C)C(=O)N=C2S1	35.5 µM [falling, single point]	
CCCNC(=O)/C=C/c1ccc(C(C)C)cc1	5.17 µM [rising, full curve]	
Cc1c(CCC(=O)O)c(=O)oc2cc(OCc3ccccc3Br)ccc12	25.1 µM [falling, single point]	
N#CC1(NC(=O)COC(=O)c2ccccc2SCC(=O)N2CCCC2)CCCCC1	35.5 µM [rising, single point]	
COc1ccc(OC)c(-n2c(N)c(C(=O)NCC3CCCO3)c3nc4ccccc4nc32)c1 (stereo not given)	29.1 µM [falling, single point]	
O=C(Nc1cccnc1)c1cc(-c2ccc(Cl)cc2)on1	4.47 µM [falling, partial curve]	
Cn1cccc1C(=O)C(=O)Nc1ccc(F)c(F)c1	15.8 µM [falling, partial curve]	

Taken from above:
Entry for `Cc1c(CCC(=O)O)c(=O)oc2cc(OCc3ccccc3Br)ccc12` under AC50 [1]: 25.1 µM [falling, single point]
Entry for `CCCCCCNC(=O)N[C@H](C(=O)NCCC[C@H]1CN2C(=NC[C@H]2C)N1CCC(c1ccccc1)c1ccccc1)C(C)O` (stereo not given in full) under AC50 [2]: 15.8 µM [falling, single point]

Quoted at random: 2 records from the list, in no set order.
SMILES	AC50 [1]	AC50 [2]
O=C(Nc1cccnc1)c1cc(-c2ccc(Cl)cc2)on1	4.47 µM [falling, partial curve]	
COc1ccc(OC)c(-n2c(N)c(C(=O)NCC3CCCO3)c3nc4ccccc4nc32)c1 (stereo not given)	29.1 µM [falling, single point]	

(further entries)

SMILES	AC50 [1]	AC50 [2]
O=C(Cn1cccc1C(=O)c1ccccc1)NCc1ccccc1Cl	1.58 µM [falling, partial curve, poor fit]	
Cc1ccc(C2(C)NC(=O)N(CC(=O)NC(=O)NC3CCCC3)C2=O)cc1 (stereo not given)	6.51 µM [rising, partial curve, poor fit]	
COc1ccccc1N(CC(=O)NC1CCCC1)C(=O)CCC(=O)Nc1ccccn1	0.158 µM [falling, partial curve, poor fit]	
COCCCN1C(=O)c2ccc(C(=O)Nc3ccc(C)cc3C)cc2C1=O	14.1 µM [falling, single point]	
O=C(CCOc1ccccc1)Nc1nnc(-c2ccc3c(c2)OCCO3)o1	35.5 µM [falling, single point]	
CCOC(=O)CSC1=C(C#N)C(=O)NC(c2ccc(OC)cc2)S1 (stereo not given)	0.517 µM [falling, partial curve, poor fit]	
C=CCn1c(=NC(=O)c2cccs2)sc2cccc(OC)c21	1.41 µM [falling, full curve, poor fit]	
COc1ccc(-c2ccc(-c3noc(C(C)C)n3)c(OC)n2)cc1	5.62 µM [rising, partial curve, poor fit]	
Cc1cc(C)n(-c2cc(N3CCN(C(=O)c4cccc(Br)c4)CC3)ccc2[N+](=O)[O-])n1	20 µM [falling, partial curve, poor fit]	
COC(=O)c1cccc(NC(=O)c2cc3ccccc3o2)c1	15.8 µM [falling, partial curve, poor fit]	
Cc1cc(NC(=O)CSCC(=O)OCc2nnc(-c3ccccc3)o2)no1	0.316 µM [rising, full curve, poor fit]	
CC(=O)NC(=S)Nc1sc2c(c1C#N)CCCCC2	1.84 µM [rising, full curve, poor fit]	
COCc1c(C(=O)N2CCc3ccccc32)oc2ccccc12	12.6 µM [rising, partial curve, poor fit]	
Cc1cccc(NC(=O)c2ccc(OCc3c(C)noc3C)cc2)c1C	25.9 µM [rising, single point]	
O=C(NC(=S)Nc1cc(Cl)ccc1O)c1cccc(Br)c1	12.6 µM [falling, partial curve]	
COC(=O)CCCNC(=O)c1ccc(OS(=O)(=O)c2cc([N+](=O)[O-])ccc2C)cc1	7.31 µM [rising, partial curve, poor fit]	
COc1ccc2nc(SCC(=O)NCc3ccc(F)cc3)[nH]c2c1	12.6 µM [falling, single point]	
C[C@]12C=CC(=O)C=C1CC[C@@H]1[C@@H]2C(=O)C[C@@]2(C)[C@H]1CC[C@]2(O)C(=O)CO	14.6 µM [rising, partial curve]	
CC(=O)c1sc(NC(=O)c2ccc(Br)o2)nc1C	1.41 µM [falling, full curve]	
CCc1cccc(C)c1NC(=O)c1cc(S(=O)(=O)N2CCC3(CC2)OCCO3)ccc1F	6.31 µM [rising, single point]	
